# Reference: PubChem BioAssay AID624297 (National Center for Advancing Translational Sciences (NCATS), 2012)
# Out of some 340,000 compounds screened, about 6,200 (1.8%) were called active. This list was built around the results that the source calls inconclusive (neither active nor inactive); the mix of calls is not that of the screen. The call rests on the fitted dose curve; in most records, active means well fitted activation curve with a large enough effect; inconclusive means small, poorly fitted or top-dose-only effect; inactive means no such curve, though single readings can be large or run the other way. Where the call is inconclusive, the potency comes from a doubtful curve fit.
# Assay: A quantitative high throughput screen for small molecules that induce DNA re-replication in SW480 colon adenocarcinoma cells. Further: nearly all actives have a fitted effect of over 55% in size.
# Details: Hoechst DNA content imaging, 48 h; series mostly up to 46.1 µM
# How it was run: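 Treated cells incubate 48 hr (37 C, 5% CO2), are stained 40 min with Hoechst, and nuclear fluorescence is enumerated; a rise in nuclei with high DNA signal marks re-replication.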
# Potency means the concentration at half of the fitted maximal effect.
row,SMILES,Potency
1,O=C(CN(C1CCCCC1)S(=O)(=O)c1ccc(F)cc1)Nc1ccc2c(c1)OCO2,"inconclusive: 29.1 µM [activator, partial curve, poor fit]"
2,c1ccc2c(c1)ccc1nnnn12,inactive
3,Cc1ccc[n+](/C(C(=S)NCc2ccco2)=C(/[O-])c2ccccc2Cl)c1,inactive
4,COc1ccccc1-c1nnc2sc(-c3ccc(N(C)C)cc3)nn12,"inconclusive: 2.59 µM [activator, partial curve, poor fit]"
5,CC(C)C(=O)N1CCN(c2ccccc2NC(=O)COc2ccccc2)CC1,inactive
6,Cc1ccc(NC(=S)NNc2ccc([N+](=O)[O-])cc2S(=O)(=O)Nc2ccccc2C(=O)O)cc1C,inactive
7,CN(Cc1ccccc1)Cc1nc2c(c(=O)n(C)c(=O)n2C)n1Cc1ccc(Cl)cc1,"inconclusive: 32.6 µM [activator, partial curve, poor fit]"
8,CCOc1ccc(CCn2c(-c3ccco3)nc3ccccc3c2=O)cc1OCC,"inconclusive: 18.4 µM [activator, single point]"
9,C/C(=N/NC(N)=S)c1cc2ccc(O)cc2oc1=O,"inconclusive: 18.4 µM [activator, single point]"
10,CCCNC(=O)C(=O)Nc1ccc2c(c1)N(S(=O)(=O)c1cccs1)CCC2,active: 18.4 µM
11,Cc1ccc(-c2n[nH]c(=S)n2C)cc1Cl,inactive
12,CCc1cc(=O)oc2cc(C)cc(OC(C)C(=O)NC3CCN(Cc4ccccc4)CC3)c12 (centres undefined),inactive
13,CCOC(=O)c1cc(C(C)(C)C)n(CCCN2CCOCC2)c1C,"inconclusive: 1.3 µM [activator, full curve, poor fit]"
14,Cc1cccc(NC(=S)/N=C(\N)Nc2nc(C)c3cc(C)ccc3n2)c1,"inconclusive: 23.1 µM [activator, partial curve, poor fit]"
15,CCCOC(=O)C1C2C=CC(C3CC23)C1C(=O)OCC(=O)c1ccccc1 (centres undefined),"inconclusive: 29.1 µM [activator, partial curve, poor fit]"
16,CC(C)(C)[C@H]1CCC(=O)N([C@H](CSc2ccc(Br)cc2)Cc2ccccc2)CC1,inactive
17,C(=N\Nc1ncnc2sc3c(c12)CCC3)/c1ccncc1,"inconclusive: 29.1 µM [activator, single point]"
18,CC1=NNC(=O)c2ccccc2O1,"inconclusive: 2.31 µM [activator, full curve, poor fit]"
19,CCOc1ccc2nc(SCC(=O)NCc3ccc(S(N)(=O)=O)cc3)[nH]c2c1,"inconclusive: 11.6 µM [activator, partial curve, poor fit]"
20,COc1ccc(-c2cc(-c3cccnc3)c(C#N)c(N)n2)cc1,"inconclusive: 29.1 µM [activator, single point]"
21,COc1ccccc1NC(=S)Nc1ccccn1,"inconclusive: 13 µM [activator, partial curve, poor fit]"
22,COc1cccc(/C=N/Nc2ccc([N+](=O)[O-])cc2)c1O,"inconclusive: 16.4 µM [activator, partial curve, poor fit]"

# Three of the compounds above, with bars between the fields.
row | SMILES | Potency
1 | O=C(CN(C1CCCCC1)S(=O)(=O)c1ccc(F)cc1)Nc1ccc2c(c1)OCO2 | inconclusive: 29.1 µM [activator, partial curve, poor fit]
6 | Cc1ccc(NC(=S)NNc2ccc([N+](=O)[O-])cc2S(=O)(=O)Nc2ccccc2C(=O)O)cc1C | inactive
22 | COc1cccc(/C=N/Nc2ccc([N+](=O)[O-])cc2)c1O | inconclusive: 16.4 µM [activator, partial curve, poor fit]

# Going on with the list:

row,SMILES,Potency
1,COc1ccc(Nc2ccc(C(=O)O)cc2[N+](=O)[O-])cc1,inactive
2,CCC(=O)N(CCC(c1ccco1)c1ccccc1OC)Cc1cccs1 (centres undefined),inactive
3,Cc1ccc(-c2nn(CCC(=O)O)cc2/C=C\C(=O)c2ccc(Br)cc2)cc1,"inconclusive: 0.231 µM [activator, full curve, poor fit]"
4,CCCCC(=O)Nc1nnc(SCC(=O)NCC2CCCO2)s1 (centres undefined),"inconclusive: 5.8 µM [activator, partial curve, poor fit]"
5,O=S(=O)(c1ccc(NC(=S)N/N=C/c2ccc(O)c(O)c2)cc1)N1CCOCC1,"inconclusive: 16.4 µM [activator, single point]"
6,O=S(=O)(c1cc(F)ccc1F)N1CCC2(CC1)OCCN2S(=O)(=O)c1ccccc1,"inconclusive: 29.1 µM [activator, single point]"
7,CCc1ccc(OCc2cccc(C(=O)N/N=C\c3cnn(C)c3C)c2)cc1,"inconclusive: 29.1 µM [activator, single point]"
8,COC(=O)c1cn(CCOc2ccccc2)c2ccccc12,inactive
9,O=S(=O)(Nc1cc(Sc2ncn[nH]2)c(O)c2ccccc12)c1ccccc1,active: 10.3 µM
10,CCCCn1c(CCC(=O)O)nc2cc(S(=O)(=O)N3CCCC3)ccc21,inactive
11,O=C(Nc1ccccc1F)c1coc(=O)c(Br)c1,"inconclusive: 18.4 µM [activator, partial curve, poor fit]"
12,C/C(CC(=O)Nc1ccc([N+](=O)[O-])cc1)=N\NC(=O)c1ccccc1O,inactive
13,CN(C)c1ccc(CNc2ccc3c(c2)ncn3C(C)(C)C)cc1,"inconclusive: 20.6 µM [activator, single point]"
14,O=C(NCc1ccco1)C1CC(c2c(Cl)cccc2Cl)=NO1 (centres undefined),"inconclusive: 29.1 µM [activator, single point]"
15,Cc1ccc(C)c(N2CCN(C(=O)c3ccc4nc(-c5ccco5)c(-c5ccco5)nc4c3)CC2)c1,active: 18.4 µM
16,CN(C)CCc1cc2c(c3c1ccc1ccccc13)OCO2,"inconclusive: 29.1 µM [activator, single point]"
17,CCCN1CCC(=O)N(CCSc2ccc(OC)cc2)CC1,"inconclusive: 29.1 µM [activator, single point]"
18,N#Cc1ccc(S(=O)(=O)N2CCN(C(=O)c3cn(-c4ccccc4)nc3-c3cccnc3)CC2)cc1,"inconclusive: 0.82 µM [activator, full curve, poor fit]"
19,Oc1ccc(/C=N/NC(=S)NCc2ccco2)cc1,inactive
20,O=C(CC1C[C@H](C(=O)N2CCOCC2)[C@@]2(CCC3CCCC3)c3[nH]c4ccccc4c3CCN2C1=O)NCCc1ccccn1 (some centres undefined),"inconclusive: 29.1 µM [activator, single point]"
21,CCN(CC)C(=O)CSc1nnc([C@@H](N)C(C)C)o1,inactive
22,CC1Cc2cc(/C(O)=C3/C(=O)C(=O)N(CCN4CCOCC4)C3c3ccc([N+](=O)[O-])cc3)ccc2O1 (centres undefined),"inconclusive: 25.9 µM [activator, single point]"
